Measurements: US20110070184A1, “METHODS AND COMPOSITIONS FOR TREATING ATHEROSCLEROSIS AND RELATED CONDIDTIONS” (CAROLUS THERPEUTICS, INC., priority 2008, published 2011)
At least one structure is not confirmed: it was looked up by name or label, or the drawing left a doubt.

System: primary human monocytes
Assay: Transwell chemotaxis of primary monocytes toward MIF
Assay type: cell-based
Settings: cells or MIF pretreated with agent
Description: Chemotaxis assays. […] Pore sizes and intervals were 5 μm and 3 h (monocytes), 3 μm and 1.5 h (T cells), and […] and 1 h (neutrophils).

Q: For `O=c1cc(N2CCOCC2)oc2c(-c3ccccc3)cccc12` [Ly294002, reference compound], which “effect on MIF-induced monocyte transmigration/chemotaxis” value is on record?
A: abrogated
